PubChem BioAssay AID743121 | NCATS – 2013
Screen: 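Knock-downs that sensitise breast cancer cells to camptothecin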 (primary screen). Cell system: MDA-MB-231 cells, a human breast cancer line. Reagent: single siRNA against human genes, 20 nM siRNA (0.8 pmol per well). Timing: 120 h (drug added 48 h after transfection, read 72 h later). Challenge: camptothecin 20 nM (about EC30) for 72 h; vehicle 0.1% DMSO in parallel plates. Detection: 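Cell viability by ATP luminescence (CellTiter-Glo) as % of non-targeting siRNA wells, and the log2 ratio of viability without drug over viability with camptothecin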. Reading the numbers: log2 vehicle/camptothecin viability: higher = stronger sensitisation to camptothecin; viability with camptothecin and viability without drug: higher = more viable cells. Active means: 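Active genes have an RSA gene-level p-value below 0.001, computed from the ratios of their separate siRNAs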.
Here is a random part of about 26,000 reagents tested. 167 of them (0.63%) were called active. 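Calls are per gene from RSA p-values that are not deposited; an individual active-marked siRNA can sensitise only weakly.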 Unmarked entries are inactive. Reagents against one gene are numbered here.

gene knocked down,reagent no.,log2 vehicle/camptothecin viability,viability with camptothecin (% of control),viability without drug (% of control)
MLF1 (myeloid leukemia factor 1),1,0.135,89.7,98.4
MLF1 (myeloid leukemia factor 1),2,-0.281,128,106
MLF1 (myeloid leukemia factor 1),3,-0.0107,108,107
AMHR2 (anti-Mullerian hormone receptor type 2),1,0.0323,68.5,70
AMHR2 (anti-Mullerian hormone receptor type 2),2,-0.162,97.9,87.5
AMHR2 (anti-Mullerian hormone receptor type 2),3,-0.0553,104,100
AMHR2 (anti-Mullerian hormone receptor type 2),4,-0.462,74.4,54
GNAT2 (G protein subunit alpha transducin 2),1,0.0377,78.4,80.5
GNAT2 (G protein subunit alpha transducin 2),2,-0.0292,95.6,93.6
GNAT2 (G protein subunit alpha transducin 2),3,-0.0885,49.2,46.3
GNAT2 (G protein subunit alpha transducin 2),4,-0.464,92.4,67
TUBA3C (tubulin alpha 3c),1,-0.699,45.1,27.8
TUBA3C (tubulin alpha 3c),2,-0.486,63.1,45.1
TUBA3C (tubulin alpha 3c),3,-0.707,78.7,48.2
TUBA3C (tubulin alpha 3c),4,-0.135,66.6,60.6
MAFG (MAF bZIP transcription factor G),1,-0.0842,99.4,93.8
MAFG (MAF bZIP transcription factor G),2,1.03,18.6,38
MAFG (MAF bZIP transcription factor G),3,0.0119,101,102
MAFG (MAF bZIP transcription factor G),4,0.0097,64.8,65.3
CARD18 (caspase recruitment domain family member 18),1,0.127,114,124
CARD18 (caspase recruitment domain family member 18),2,-0.207,68.1,59
CARD18 (caspase recruitment domain family member 18),3,0.0762,102,107
OGT (O-linked N-acetylglucosamine (GlcNAc) transferase),1,-0.145,111,100
OGT (O-linked N-acetylglucosamine (GlcNAc) transferase),2,0.0951,71.5,76.3
OGT (O-linked N-acetylglucosamine (GlcNAc) transferase),3,-0.536,82.5,56.9
OGT (O-linked N-acetylglucosamine (GlcNAc) transferase),4,-0.401,80.8,61.2
SLC8B1,1,-0.0406,109,106
SLC8B1,2,-0.193,81,70.8
SLC8B1,3,-0.207,57.9,50.2
SLC8B1,4,0.14,57.5,63.4
PLCH2 (phospholipase C eta 2),1,-0.222,66.8,57.2
PLCH2 (phospholipase C eta 2),2,-0.0172,78.3,77.4
PLCH2 (phospholipase C eta 2),3,-0.598,101,66.8
PLCH2 (phospholipase C eta 2),4,0.0298,25.9,26.4
C5 (complement C5),1,-0.0474,102,98.9
C5 (complement C5),2,-0.075,64.6,61.3
C5 (complement C5),3,-0.11,89.3,82.7
C5 (complement C5),4,-0.221,94.6,81.1
KCNAB2,1,1.38,16.7,43.4
KCNAB2,2,-0.41,122,92.1
KCNAB2,3,-0.481,81,58.1
PRPS1L1 (phosphoribosyl pyrophosphate synthetase 1 like 1),1,-0.581,43,28.7
PRPS1L1 (phosphoribosyl pyrophosphate synthetase 1 like 1),2,-0.124,89.9,82.5
PRPS1L1 (phosphoribosyl pyrophosphate synthetase 1 like 1),3,-0.507,91,64.1
PRPS1L1 (phosphoribosyl pyrophosphate synthetase 1 like 1),4,-0.516,111,77.8
AGO3 (argonaute RISC catalytic component 3),1,-0.458,77.2,56.2
AGO3 (argonaute RISC catalytic component 3),2,-0.478,46.6,33.4
AGO3 (argonaute RISC catalytic component 3),3,-0.0503,78,75.3
AGO3 (argonaute RISC catalytic component 3),4,-0.0923,99.1,93
OR2W1 (olfactory receptor family 2 subfamily W member 1),1,-0.746,60.8,36.2
OR2W1 (olfactory receptor family 2 subfamily W member 1),2,0.95,29.8,57.6
OR2W1 (olfactory receptor family 2 subfamily W member 1),3,-0.148,89.3,80.6
OR2W1 (olfactory receptor family 2 subfamily W member 1),4,-0.333,78.5,62.3
MED13L (mediator complex subunit 13L),1,-0.477,89.4,64.2
MED13L (mediator complex subunit 13L),2,0.0198,86.8,88
MED13L (mediator complex subunit 13L),3,-0.324,95.7,76.5
MED13L (mediator complex subunit 13L),4,0.373,32.9,42.6
MID1 (midline 1),1,0.000869,91.2,91.2
MID1 (midline 1),2,0.0522,72.6,75.3
MID1 (midline 1),3,-0.0853,90.3,85.2
MID1 (midline 1),4,-0.0648,85.9,82.1
IP6K2 (inositol hexakisphosphate kinase 2),1,1.09,18.9,40.1
IP6K2 (inositol hexakisphosphate kinase 2),2,-0.148,88.1,79.5
IP6K2 (inositol hexakisphosphate kinase 2),3,-0.186,116,102
IP6K2 (inositol hexakisphosphate kinase 2),4,0.324,28.1,35.2
CCT8 (chaperonin containing TCP1 subunit 8),1,-0.54,95.4,65.6
CCT8 (chaperonin containing TCP1 subunit 8),2,-0.466,43.1,31.2
CCT8 (chaperonin containing TCP1 subunit 8),3,-0.438,60.6,44.7
CCT8 (chaperonin containing TCP1 subunit 8),4,-0.476,76.1,54.7
FOXK2 (forkhead box K2),1,0.0328,102,104
FOXK2 (forkhead box K2),2,-0.000115,38.1,38.1
FOXK2 (forkhead box K2),3,-0.106,95.2,88.4
FOXK2 (forkhead box K2),4,0.0312,43.7,44.6
GUCA1B (guanylate cyclase activator 1B),1,-0.634,115,74.4
GUCA1B (guanylate cyclase activator 1B),2,-0.105,104,96.5
GUCA1B (guanylate cyclase activator 1B),3,0.499,58.3,82.3
TMED1 (transmembrane p24 trafficking protein 1),1,-0.385,124,95.3
TMED1 (transmembrane p24 trafficking protein 1),2,-0.0741,82.8,78.6
TMED1 (transmembrane p24 trafficking protein 1),3,-0.418,120,90.2
TMED1 (transmembrane p24 trafficking protein 1),4,-0.0051,84.8,84.5
ATP2B1 (ATPase plasma membrane Ca2+ transporting 1),1,-0.203,95.2,82.7
ATP2B1 (ATPase plasma membrane Ca2+ transporting 1),2,0.12,86,93.4
ATP2B1 (ATPase plasma membrane Ca2+ transporting 1),3,-0.313,71.7,57.7
ATP2B1 (ATPase plasma membrane Ca2+ transporting 1),4,0.236,77.7,91.6
KCNN1 (potassium calcium-activated channel subfamily N member 1),1,-0.249,71.3,60
KCNN1 (potassium calcium-activated channel subfamily N member 1),2,0.158,51.3,57.2
KCNN1 (potassium calcium-activated channel subfamily N member 1),3,-0.491,52.1,37.1
KCNN1 (potassium calcium-activated channel subfamily N member 1),4,-0.55,57.8,39.5

In a second layout: 9 of the entries above.
gene knocked down	reagent no.	log2 vehicle/camptothecin viability	viability with camptothecin (% of control)	viability without drug (% of control)
MED13L (mediator complex subunit 13L)	3	-0.324	95.7	76.5
MED13L (mediator complex subunit 13L)	4	0.373	32.9	42.6
MID1 (midline 1)	1	0.000869	91.2	91.2
MID1 (midline 1)	2	0.0522	72.6	75.3
MID1 (midline 1)	3	-0.0853	90.3	85.2
MID1 (midline 1)	4	-0.0648	85.9	82.1
IP6K2 (inositol hexakisphosphate kinase 2)	1	1.09	18.9	40.1
IP6K2 (inositol hexakisphosphate kinase 2)	2	-0.148	88.1	79.5
IP6K2 (inositol hexakisphosphate kinase 2)	3	-0.186	116	102
